This is an account of results in US9861568B2, “Composition for improving skin conditions, containing chlorophyll a or pheophorbide a” (GWANGJU INSTITUTE OF SCIENCE AND TECHNOLOGY, priority 2014, dated 2018).

The test system of the data set is hDF cells. Put plainly: Confocal microscopy of intracellular uptake in hDF cells. The format is cell-based, human. The note with it: 2 hours.

As to pheophorbide a, the “intracellular location by confocal microscope” value is reported as “located in cytoplasm in proportion to its concentration”. For the same substance, where the note is “10 μM compared to 20 μM and 50 μM”, the cell uptake entry is given as “cell uptake did not occur well”.
